PubChem BioAssay AID1259280 – Sanger Institute | 2017
The whole screen tested 794 reagents; this is a part drawn at random. In the full data, 12 (1.5%) are marked active. 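Calls cover knock-down without drug only; synergy scores stand apart, values above 0.15 being treated as synergy.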 Entries without a mark were called inactive. Not all columns of the deposit are shown. Reagent sequences are not shown. Not stated in the record: the amount of reagent, the time to read-out.

Test: 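Kinase knock-downs that kill colorectal cancer cells or add to anchor drugs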 (primary screen)
System: human SNU407 colorectal cancer cells
Knock-down reagent: siRNA pool against human genes
Treatment: anchor drugs BYL719 at 1 µM, cetuximab at 5 µg/ml or trametinib at 10 nM, or DMSO vehicle alone; exposure time not given
Measured: 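Viability relative to non-targeting control siRNA, expressed as robust z-score, plus a synergy score for each of the three anchor drugs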
Reading the numbers: viability z-score, no drug: higher = more cells survive the knock-down
Hit rule: 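Essential calls require a no-drug robust viability z-score under -3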
Meaning of the calls: active = essential (knock-down alone kills cells); inactive = no change without drug

gene symbol | viability z-score, no drug
PLK4 (GeneID 10733) | -1.49
PI4KA (GeneID 5297) | 0.249
HIPK3 (GeneID 10114) | 0.367
PDXK (GeneID 8566) | 0.901
IPPK (GeneID 64768) | -0.783
GCK (GeneID 2645) | -0.312
CTNNB1 (GeneID 1499) | -1.41
RSKR (GeneID 124923) | 0.484
MAP3K14 (GeneID 9020) | -0.43
BMPR1B (GeneID 658) | 0.714
PIK3CG (GeneID 5294) | -0.455
BMP2K (GeneID 55589) | 0.203
CIT (GeneID 11113) | -1.49
RPS6KB2 (GeneID 6199) | 0.901
MAP4K5 (GeneID 11183) | -0.914
PKN3 (GeneID 29941) | 0.0761
PFKFB1 (GeneID 5207) | -1.1
CDK14 (GeneID 5218) | 0.744
GOLGA5 (GeneID 9950) | 0.642
IGF1R (GeneID 3480) | -0.764
EPHA1 (GeneID 2041) | -0.383
MTOR (GeneID 2475) | -0.117
MYLK4 (GeneID 340156) | -1.21
PRKAR2A (GeneID 5576) | -0.957
RPS6KA3 (GeneID 6197) | 0.901
WNK2 (GeneID 65268) | 0.901
PGK2 (GeneID 5232) | 0.901
IRAK1 (GeneID 3654) | -0.945

Laid out differently: 3 of the entries above
| gene symbol | viability z-score, no drug |
| --- | --- |
| CTNNB1 (GeneID 1499) | -1.41 |
| RSKR (GeneID 124923) | 0.484 |
| MAP3K14 (GeneID 9020) | -0.43 |

Next reagents:
gene symbol | viability z-score, no drug
SYK (GeneID 6850) | -3.53 (active)
PINK1 (GeneID 65018) | -0.443
BMPR2 (GeneID 659) | -1.65
BRSK1 (GeneID 84446) | 0.901
RBKS (GeneID 64080) | 0.901
NTRK1 (GeneID 4914) | -0.3
FLT4 (GeneID 2324) | 0.901
STKLD1 (GeneID 169436) | -2.36
DYRK1B (GeneID 9149) | -0.658
KRAS (GeneID 3845) | -2.67
NLK (GeneID 51701) | 0.901
SGK2 (GeneID 10110) | -0.805
PRKACA (GeneID 5566) | 0.848
STK24 (GeneID 8428) | 0.647
DYRK1A (GeneID 1859) | 0.34
PKN1 (GeneID 5585) | 0.695
EFNB3 (GeneID 1949) | -1.06
PRKAB1 (GeneID 5564) | -1.32
BRSK2 (GeneID 9024) | 0.901
TPD52L3 (GeneID 89882) | -0.458
TEC (GeneID 7006) | 0.0544
TSKS (GeneID 60385) | 0.901
